Like-named read-outs stand apart in the source and are kept apart here.

The test system of this data set is Pkd1^−/− murine model of polycystic kidney disease. Type of data set: in vivo. As to conditions: 0.07 mg/kg/day i.p. to pregnant mice, E10.5 until birth. The protocol:
As per approved IACUC animal protocol, Pkd1^+/−/Pkd1^+/− mice were mated and pregnant mice were divided into control (DMSO) or experimental (triptolide) groups. A total volume of 100 μl of PBS with no more than 5% DMSO or DMSO/0.07 mg/kg/day triptolide was injected i.p. with a 28 G ½ insulin syringe. Mice were weighed and injected starting at E10.5 until birth. All pups were examined for length and developmental staging such as whisker formation. Kidneys were harvested, weighed, and fixed in 4% paraformaldehyde before histological preparation.
Kidneys were prepared by sagittal cross-sectioning and hematoxylin and eosin staining. All kidneys were photographed under the same magnification (4×) and cystic burden was computed using Image J analysis software (NIH). The area of cysts within the total area of the kidney (pixels) was calculated as a final percentage of cystic burden in the kidney. Immunohistochemical analysis of active caspase-3 was completed as per manufacturer's protocol.
Following successful Pkd1^+/− Pkd1^+/− matings, 0.07 mg/kg/day of triptolide or DMSO control was injected i.p. into pregnant mice until they gave birth. All pups were assessed for viability, length, developmental staging, and wet kidney weight. A total of 59 pups from DMSO treated females and 100 pups from triptolide treated females were examined for multiple parameters, such as genotypic distribution, developmental stage at time of birth, and average kidney weights (Table 1). […] Approximately 20% of all Pkd1^−/− mice were born alive from each treatment group. However, severe edematous abnormalities were obvious upon necropsy.

Regarding `CC(C)[C@]12O[C@H]1[C@@H]1O[C@]13[C@]1(O[C@H]1C[C@H]1C4=C(CC[C@@]13C)C(=O)OC4)[C@@H]2O` [triptolide], the “Total Pkd1^+/+ (share of pups)” value was 33 (33%), the “Total Pkd1^+/− (share of pups)” value is listed as 46 (46%) and the “Total Pkd1^−/− (share of pups)” value stood at 18%. Also, the “Total Pkd1^−/− (share of pups)” value (listed as Triptolide) is recorded as 18 (18%).

These data come from patent US20080063601A1, “Compositions and methods relating to polycystic kidney disease” (priority 2004, published 2008).
